Assay [1] deals with NG2 (nerve/glial antigen 2) proteoglycan (human (endogenous in HuAoSMC and G361)) (UniProt Q6UVK1). Put plainly: flow cytometry on cells; G361-melanoma cells pre-incubated with 4- to 20-fold excess (200-1000 uM) of …-decapeptide for 16 min at 37 C, then tTF-TAA; detection with anti-His-FITC antibody; only the binder purified.
For assay [2] the target is unchanged. Put plainly: flow cytometry on cells; HuAoSMC pre-incubated with 20-fold excess of …-decapeptide for 16 min at 37 C, then tTF-TAA; detection with anti-His-FITC antibody; only the binder purified. A general note: Flow cytometry measures light scatter and fluorescence of single cells or particles in a stream.

The chains behind the UniProt entries cited, without tags or fusion partners. Residues count along the entry.
UniProt Q6UVK1, residues 30-2322: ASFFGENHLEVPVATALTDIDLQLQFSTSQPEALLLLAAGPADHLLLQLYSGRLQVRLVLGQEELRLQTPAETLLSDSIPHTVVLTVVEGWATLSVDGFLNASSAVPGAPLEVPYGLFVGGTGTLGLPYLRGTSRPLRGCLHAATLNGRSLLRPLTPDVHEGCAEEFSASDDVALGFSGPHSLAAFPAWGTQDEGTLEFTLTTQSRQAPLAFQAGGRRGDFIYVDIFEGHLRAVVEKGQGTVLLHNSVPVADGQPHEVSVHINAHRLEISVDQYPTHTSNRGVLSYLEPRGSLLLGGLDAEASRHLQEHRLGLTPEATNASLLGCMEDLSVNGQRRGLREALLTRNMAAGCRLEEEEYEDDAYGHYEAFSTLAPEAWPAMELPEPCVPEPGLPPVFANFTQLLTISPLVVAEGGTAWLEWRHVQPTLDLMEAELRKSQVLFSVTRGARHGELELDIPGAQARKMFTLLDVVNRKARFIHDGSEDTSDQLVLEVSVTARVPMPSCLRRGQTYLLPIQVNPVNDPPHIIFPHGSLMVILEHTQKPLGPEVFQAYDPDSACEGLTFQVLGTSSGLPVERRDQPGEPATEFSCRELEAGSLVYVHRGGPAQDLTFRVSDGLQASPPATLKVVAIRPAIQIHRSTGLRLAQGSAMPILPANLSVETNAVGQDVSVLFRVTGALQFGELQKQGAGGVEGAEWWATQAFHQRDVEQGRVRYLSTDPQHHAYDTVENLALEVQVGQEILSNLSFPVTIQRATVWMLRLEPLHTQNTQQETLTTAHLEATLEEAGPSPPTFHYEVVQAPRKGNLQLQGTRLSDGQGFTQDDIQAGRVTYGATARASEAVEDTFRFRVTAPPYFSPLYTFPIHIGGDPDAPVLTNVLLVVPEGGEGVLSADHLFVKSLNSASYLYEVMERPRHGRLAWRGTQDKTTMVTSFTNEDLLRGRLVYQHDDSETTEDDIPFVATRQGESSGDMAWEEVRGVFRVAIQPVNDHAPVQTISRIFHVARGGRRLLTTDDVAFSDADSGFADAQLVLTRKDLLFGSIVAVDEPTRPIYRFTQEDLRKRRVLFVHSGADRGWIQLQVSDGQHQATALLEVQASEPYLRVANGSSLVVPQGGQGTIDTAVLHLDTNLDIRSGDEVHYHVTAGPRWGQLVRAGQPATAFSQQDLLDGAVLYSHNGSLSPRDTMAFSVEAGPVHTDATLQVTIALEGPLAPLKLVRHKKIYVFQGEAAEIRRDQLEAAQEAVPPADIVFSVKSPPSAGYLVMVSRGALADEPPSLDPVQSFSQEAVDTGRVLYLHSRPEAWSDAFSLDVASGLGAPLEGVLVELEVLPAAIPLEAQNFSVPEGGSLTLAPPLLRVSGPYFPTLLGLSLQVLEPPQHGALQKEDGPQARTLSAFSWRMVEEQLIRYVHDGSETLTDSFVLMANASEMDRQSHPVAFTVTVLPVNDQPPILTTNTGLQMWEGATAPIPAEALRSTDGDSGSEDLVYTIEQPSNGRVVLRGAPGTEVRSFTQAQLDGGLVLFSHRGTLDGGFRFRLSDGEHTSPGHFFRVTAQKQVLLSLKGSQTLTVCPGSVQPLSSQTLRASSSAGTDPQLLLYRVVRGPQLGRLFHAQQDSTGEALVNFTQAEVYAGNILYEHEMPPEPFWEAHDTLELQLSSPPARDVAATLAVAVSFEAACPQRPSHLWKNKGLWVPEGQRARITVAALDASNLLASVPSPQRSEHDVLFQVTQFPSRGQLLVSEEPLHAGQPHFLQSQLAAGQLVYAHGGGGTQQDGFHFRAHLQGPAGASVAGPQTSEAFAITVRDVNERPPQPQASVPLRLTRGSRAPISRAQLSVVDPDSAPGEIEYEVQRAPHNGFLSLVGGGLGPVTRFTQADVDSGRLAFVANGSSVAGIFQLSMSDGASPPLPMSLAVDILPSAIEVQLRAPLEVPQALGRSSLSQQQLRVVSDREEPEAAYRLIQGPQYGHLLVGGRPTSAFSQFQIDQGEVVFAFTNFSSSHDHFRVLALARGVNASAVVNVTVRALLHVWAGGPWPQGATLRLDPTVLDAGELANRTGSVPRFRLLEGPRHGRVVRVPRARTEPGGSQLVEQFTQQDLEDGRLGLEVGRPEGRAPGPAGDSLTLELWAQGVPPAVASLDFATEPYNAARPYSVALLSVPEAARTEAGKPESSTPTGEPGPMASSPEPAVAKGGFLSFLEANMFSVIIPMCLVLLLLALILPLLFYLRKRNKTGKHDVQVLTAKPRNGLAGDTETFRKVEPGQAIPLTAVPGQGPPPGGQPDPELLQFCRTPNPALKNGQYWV

Results are given in words; binding and its absence hold for the method and conditions named. Some binding calls cover weakened binding; strength is not graded here.

B1: …-decapeptide (peptide)
peptide: TAASGVRSMH
In the case of B1, the binding result in assay [1] and in assay [2] was “binds” in each case.

The values are drawn from publication PMC4872748, “NG2 proteoglycan as a pericyte target for anticancer therapy by tumor vessel infarction with retargeted tissue factor” (Oncotarget, 2016).
